{"source": "PubChem BioAssay AID248", "about": "(DTP/NCI, 2004)", "test_system": "L1210 leukemia ip in BDF1 mice, survival T/C", "assay": "NCI In Vivo Anticancer Drug Screen. Data for tumor model L1210 Leukemia (intraperitoneal) in B6D2F1 (BDF1) mice", "settings": "T/C endpoint: mean survival time, higher T/C = longer survival", "key": {"[1]": {"settings": "dose: 400.0 mg/kg/injection, schedule: Q01DX001 (oral), vehicle: water"}, "[2]": {"settings": "dose: 400.0 mg/kg/injection, schedule: Q04DX003 (ip), vehicle: saline with Tween-80"}}, "note": "The list shows only some results of the screen, not a fair sample: it gathers tests that were run many times, whatever their T/C, doses with no T/C, and many T/C values between a quarter and a half above the control. Further doses and runs are listed elsewhere. T/C gives the treated animals as a percentage of the vehicle group. Some doses have a count of surviving animals in place of a T/C: the source files T/C as zero there, which appears to mark a toxic dose or a test without result, not a measured value. Some doses without a T/C left all or most animals alive at the check, yet need not have been tolerated: survival well below the control is almost never listed, so the zero probably covers shortened survival too. Survivors were counted at the toxicity check, usually on the fifth day, unless a day is given; later deaths do not show. Schedules are NCI's codes, taken here to give the interval after Q, in days (D) or hours (H), and the number of doses after X. Some schedules carry Z or #; the key to these is not given. Some molecules as drawn cover several salts, stereoisomers or complexes of the source; a dose is that of the sample tested. Some entries were tested several times; the results are listed from low to high. For survival time, this PubChem deposit counts one and a half times the control or more as active, and values a quarter to a half above the control carry no call in these data; other NCI protocols may use other cut-offs. Some T/C values carry the count of animals alive at the toxicity check (mostly the fifth day); without a count, all were alive then."}
{"molecule": "Cc1c2ccncc2c(C)c2c1[nH]c1ccccc12", "values": [{"measurement": "T/C", "setting": "dose: 200.0 mg/kg/injection, schedule: Q04DX003 (oral), vehicle: saline", "result": "137 % of control"}, {"measurement": "survivor count", "setting": "dose: 200.0 mg/kg/injection, schedule: Q04DX003 (oral), vehicle: water", "result": "6 of 6"}, {"measurement": "survivor count", "setting": "dose: 200.0 mg/kg/injection, schedule: Q04DX009 (ip), vehicle: citric acid", "result": "6 of 10"}, {"measurement": "T/C", "setting": "dose: 225.0 mg/kg/injection, schedule: Q01DX001 (ip), vehicle: saline", "result": "141 % of control"}, {"measurement": "survivor count", "setting": "dose: 225.0 mg/kg/injection, schedule: Q01DX Z (oral), vehicle: saline", "result": "5 of 6"}, {"measurement": "survivor count", "setting": "dose: 256.0 mg/kg/injection, schedule: Q01DX001 (ip), vehicle: clinical formulation", "result": "0 of 10"}, {"measurement": "T/C", "setting": "dose: 256.0 mg/kg/injection, schedule: Q01DX001 (sc), vehicle: clinical formulation", "result": "146 % of control"}, {"measurement": "survivor count", "setting": "dose: 256.0 mg/kg/injection, schedule: Q04DX003 (ip), vehicle: acid diluted with saline", "result": "2 of 10"}, {"measurement": "survivor count", "setting": "dose: 256.0 mg/kg/injection, schedule: Q04DX003 (ip), vehicle: clinical formulation", "result": "0 of 10"}, {"measurement": "survivor count", "setting": "dose: 256.0 mg/kg/injection, schedule: Q04DX003 (oral), vehicle: clinical formulation", "result": "9 of 10"}, {"measurement": "survivor count", "setting": "dose: 256.0 mg/kg/injection, schedule: Q08DX002 (ip), vehicle: clinical formulation", "result": "0 of 10"}, {"measurement": "T/C", "setting": "dose: 256.0 mg/kg/injection, schedule: Q## X009 (oral), vehicle: carboxymethylcellulose (CMC)", "result": "132 % of control"}, {"measurement": "survivor count", "setting": "dose: 300.0 mg/kg/injection, schedule: Q01DX001 (ip), vehicle: other", "result": "0 of 8"}, {"measurement": "T/C", "setting": "dose: 300.0 mg/kg/injection, schedule: Q01DX001 (ip), vehicle: saline with Tween-80", "result": "147 % of control"}, {"measurement": "T/C", "setting": "dose: 300.0 mg/kg/injection, schedule: Q01DX001 (oral), vehicle: Klucel (hydroxypropylcellulose) (HPC)", "result": "133 % of control"}, {"measurement": "T/C", "setting": "dose: 300.0 mg/kg/injection, schedule: Q01DX001 (oral), vehicle: other, evaluated on day 40", "result": "150 % of control"}, {"measurement": "T/C", "setting": "dose: 300.0 mg/kg/injection, schedule: Q01DX001 (oral), vehicle: other, evaluated on day 60", "result": "135, 160, 177 % of control"}, {"measurement": "survivor count", "setting": "dose: 300.0 mg/kg/injection, schedule: Q01DX001 (oral), vehicle: other", "result": "3 of 10"}, {"measurement": "T/C", "setting": "dose: 300.0 mg/kg/injection, schedule: Q01DX001 (oral), vehicle: saline", "result": "126 and 138 % of control"}, {"measurement": "T/C", "setting": "dose: 300.0 mg/kg/injection, schedule: Q04DX003 (ip), vehicle: Klucel (hydroxypropylcellulose) (HPC), evaluated on day 5", "result": "95 % of control"}, {"measurement": "T/C", "setting": "dose: 300.0 mg/kg/injection, schedule: Q04DX003 (ip), vehicle: Klucel (hydroxypropylcellulose) (HPC), evaluated on day 30", "result": "123 % of control"}, {"measurement": "T/C", "setting": "dose: 300.0 mg/kg/injection, schedule: Q04DX003 (ip), vehicle: Klucel (hydroxypropylcellulose) (HPC), evaluated on day 60", "result": "95, 97, 102 % of control"}, {"measurement": "survivor count", "setting": "dose: 300.0 mg/kg/injection, schedule: Q04DX003 (ip), vehicle: saline", "result": "10 of 10"}, {"measurement": "survivor count", "setting": "dose: 300.0 mg/kg/injection, schedule: Q08DX002 (ip), vehicle: other", "result": "0 of 8"}, {"measurement": "survivor count", "setting": "dose: 300.0 mg/kg/injection, schedule: Q08DX002 (ip), vehicle: steroid suspending solution", "result": "8 of 8"}, {"measurement": "T/C", "setting": "dose: 320.0 mg/kg/injection, schedule: Q01DX001 (ip), vehicle: acid diluted with saline", "result": "149 % of control"}, {"measurement": "survivor count", "setting": "dose: 400.0 mg/kg/injection, schedule: Q01DX001 (oral), vehicle: saline with Tween-80", "result": "5 of 6 and 6 of 6"}, {"measurement": "T/C", "setting": "[1]", "result": "133 % of control"}, {"measurement": "survivor count", "setting": "[1]", "result": "6 of 6"}, {"measurement": "survivor count", "setting": "dose: 400.0 mg/kg/injection, schedule: Q01DX009 (ip), vehicle: other", "result": "4 of 6"}, {"measurement": "T/C", "setting": "[2]", "result": "86 [5 of 6 alive], 92, 122 % of control"}, {"measurement": "survivor count", "setting": "[2]", "result": "6 of 6"}, {"measurement": "survivor count", "setting": "dose: 400.0 mg/kg/injection, schedule: Q04DX003 (ip), vehicle: saline", "result": "6 of 6"}, {"measurement": "survivor count", "setting": "dose: 400.0 mg/kg/injection, schedule: Q04DX003 (oral), vehicle: water", "result": "6 of 6"}, {"measurement": "survivor count", "setting": "dose: 480.0 mg/kg/injection, schedule: Q01DX001 (ip), vehicle: acetone", "result": "3 of 4"}, {"measurement": "survivor count", "setting": "dose: 480.0 mg/kg/injection, schedule: Q## X008 (oral), vehicle: other", "result": "3 of 10"}, {"measurement": "survivor count", "setting": "dose: 480.0 mg/kg/injection, schedule: Q## X016 (oral), vehicle: other", "result": "3 of 10"}, {"measurement": "survivor count", "setting": "dose: 600.0 mg/kg/injection, schedule: Q01DX001 (ip), vehicle: other", "result": "0 of 8"}, {"measurement": "survivor count", "setting": "dose: 600.0 mg/kg/injection, schedule: Q01DX001 (ip), vehicle: saline with Tween-80", "result": "1 of 10"}, {"measurement": "T/C", "setting": "dose: 600.0 mg/kg/injection, schedule: Q01DX001 (ip), vehicle: saline", "result": "147 % of control"}, {"measurement": "survivor count", "setting": "dose: 600.0 mg/kg/injection, schedule: Q01DX001 (ip), vehicle: steroid suspending solution", "result": "7 of 8"}, {"measurement": "survivor count", "setting": "dose: 600.0 mg/kg/injection, schedule: Q01DX001 (oral), vehicle: Klucel (hydroxypropylcellulose) (HPC)", "result": "5 of 10"}, {"measurement": "T/C", "setting": "dose: 600.0 mg/kg/injection, schedule: Q01DX001 (oral), vehicle: other, evaluated on day 40", "result": "131 % of control [9 of 10 alive]"}]}
